According to the supplement of paper PMC8256030:
Values joined by “and” are separate entries in the source; they are usually repeats but may differ in a detail not shown here. Identical values can stand only once. The list shows a part of the results. This data set is noisy: repeats of one test often differ as much as different tests do.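 HEK293T cells were given each compound shortly before transfection with a reporter in which red mCherry is followed by the SARS-CoV-2 frameshift element and then GFP in the −1 frame, so GFP appears only after frameshifting.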

What follows are molecules tested on HEK293T (assay: percent viability (nuclei count) relative to control; higher = more viable cells). Conditions: 10 µM; 24 h.
For CCCNCC(O)COc1ccccc1C(=O)CCc1ccccc1 (stereo not given) [propafenone], the percent viability was 447% and 297%. CN(C)/N=N/c1[nH]cnc1C(N)=O [Dacarbazine] showed a percent viability of 210%. For CN(C)C(=N)NC(=N)N, the percent viability was 38.1%. Work on O=C(O)CCC/C=C\C[C@@H]1[C@@H](/C=C/[C@@H](O)COc2cccc(C(F)(F)F)c2)[C@H](O)C[C@@H]1O (racemic) [fluprostenol] yielded a percent viability of 180%. CCC(=O)O[C@@H](O[P@](=O)(CCCCc1ccccc1)CC(=O)N1C[C@H](C2CCCCC2)C[C@H]1C(=O)O)C(C)C [Fosinopril] showed a percent viability of 372%. Work on COc1cc2c(cc1OC)-c1c/c(=N\c3c(C)cc(C)cc3C)n(C)c(=O)n1CC2 [trequinsin] yielded a percent viability of 151%. In the case of CNC(=O)OCc1cccc(COC(=O)NC)n1 [pyricarbate], the percent viability is reported as 170%. With CCN(CC)C(C)CN1c2ccccc2Sc2ccccc21 (stereo not given) [profenamine] the percent viability was 143%. With CO[C@@]1(NC(=O)C(C(=O)O)c2ccc(O)cc2)C(=O)N2C(C(=O)O)=C(CSc3nnnn3C)CO[C@@H]21 (stereo not given in full) the percent viability was 306%. Work on CCN(CC)C(=O)C1CN2CCc3cc(OC)c(OC)cc3C2CC1OC(C)=O (stereo not given) [benzquinamide] yielded a percent viability of 196%. CC(C)(O)CC(C)(O)c1ccc(Cl)cc1 (stereo not given) [fenpentadiol] was tested, and the percent viability was 305%. With CC(C)[C@H]1CC[C@H](C(=O)N[C@H](Cc2ccccc2)C(=O)O)CC1 the percent viability was 116%. Work on CCCC1O[C@@H]2C[C@H]3[C@@H]4CCC5=CC(=O)C=C[C@]5(C)[C@H]4[C@@H](O)C[C@]3(C)[C@]2(C(=O)CO)O1 (stereo not given in full) [budesonide] yielded a percent viability of 200%. With O=C(c1ccc(OCCN2CCCCC2)cc1)c1c(-c2ccc(O)cc2)sc2cc(O)ccc12 [raloxifene] the percent viability was 330% and 383%. CN(C)/N=N/c1[nH]cnc1C(N)=O was tested, and the percent viability was 174%. CNC(=O)c1cccc(NCC(=O)NCCc2ccc(OC)c(OC)c2)c1 [ecabapide] was tested, and the percent viability was 288%. In the case of CCOc1ccc(C(=O)OCCN(CC)CC)cc1 [parethoxycaine], the percent viability is reported as 161%. For CCN(CC)CCNC(=O)c1ccc(N)cc1 [procainamide], the percent viability was 138% and 289%. For CCCCCCCCCCCCCCCC(=O)OC[C@H](O)[C@H]1OC(=O)C(O)=C1O, the percent viability was 282%. Molecule O=C(O)Cc1csc(-c2ccc(Cl)cc2)n1 [fenclozic acid] has a percent viability of 148%. Work on CN1CC(O)c2cc(N=NC(N)=O)c(O)cc21 (stereo not given) [carbazochrome] yielded a percent viability of 175%. Work on O=C(C[C@H](CSc1ccccc1)C(=O)O)c1ccc(-c2ccc(Cl)cc2)cc1 [tanomastat] yielded a percent viability of 326%. Molecule O=[N+]([O-])c1ccc(S(=O)(=O)Nc2nccs2)cc1 [nitrosulfathiazole] has a percent viability of 229%. Molecule Cn1c(CNc2ccc(C(=N)N)cc2)nc2cc(C(=O)N(CCC(=O)O)c3ccccn3)ccc21 [dabigatran] has a percent viability of 247%. Work on N[C@@H](CCC(=O)N[C@@H](CS)C(=O)NCC(=O)O)C(=O)O yielded a percent viability of 59%. Work on COc1ccc2cc([C@H](C)C(=O)O)ccc2c1 yielded a percent viability of 300%. CCCCc1nc(Cl)c(CO)n1Cc1ccc(-c2ccccc2-c2nnn[nH]2)cc1 [Losartan] showed a percent viability of 334%. O=P(O)(O)C(O)(Cn1ccnc1)P(=O)(O)O [zoledronic acid] was tested, and the percent viability was 225%. NC[C@@H]1CC[C@@H](N)[C@@H](O[C@H]2[C@H](O)[C@@H](O[C@H]3O[C@H](CO)[C@@H](O)[C@H](N)[C@H]3O)[C@H](N)C[C@@H]2N)O1 showed a percent viability of 127%. N[C@H](Cc1ccccc1)C(=O)O gave a percent viability of 118%. Molecule c1ccc(-c2cc(CCC3CCNCC3)c3ccccc3n2)cc1 [pipequaline] has a percent viability of 72.1%. With CC/C(=C(\c1ccc(O)cc1)c1ccc(OCCN(C)C)cc1)c1ccccc1 [afimoxifene] the percent viability was 222%. C[C@@H]1CN(c2c(F)c(F)c3c(=O)c(C(=O)O)cn(C4CC4)c3c2F)C[C@H](C)N1 [orbifloxacin] gave a percent viability of 300%. For O=c1[nH]c(=O)n(C2CCCO2)cc1F (stereo not given) [tegafur], the percent viability was 197%. In the case of CC(C)NCC(O)COc1cccc2ccccc12 (stereo not given) [dibudinate], the percent viability is reported as 160%. With CC(=O)c1ccc2c(c1)N(CCCN(C)C)c1ccccc1S2 [acepromazine] the percent viability was 5.63%. COc1ccc([C@@H]2Sc3ccccc3N(CCN(C)C)C(=O)[C@@H]2OC(C)=O)cc1 [diltiazem] was tested, and the percent viability was 417% and 154%. Molecule COc1ccc(/C=C/C(=O)Nc2ccccc2C(=O)O)cc1OC has a percent viability of 138%. CCc1cccc(CC)c1NC(=O)CN(CC(=O)O)CC(=O)O [etifenin] gave a percent viability of 144%. In the case of Nc1c(CC(=O)O)cccc1C(=O)c1ccc(Br)cc1 [Xibrom], the percent viability is reported as 310%.
